According to PubChem BioAssay AID1362 (SRMLSC, 2008):
The list shows a part of the results.

Assay: growth inhibition of WT strain, primary screen, mitochondrial fusion inhibitor project, WT and mutant strains, chemical genetic (AID 1362); further: tested in S. cerevisiae
Conditions: mitochondrial fusion phenotypic screen, at 10 µM

| Structure (SMILES) | inhibition [%] |
| --- | --- |
| Cc1c(NP(C)(=O)Oc2ccc(C(C)C)cc2)c(=O)n(-c2ccccc2)n1C (stereo unspecified) | -5.26 |
| O=[N+]([O-])c1cc([N+](=O)[O-])c(Nc2ccccn2)c([N+](=O)[O-])c1 | 21.5 |
| CC(C)CC(=O)NC(Sc1ccc(Cl)cc1)C(Cl)(Cl)Cl (stereo unspecified) | 28.3 |
| Oc1ccccc1CNc1ccccn1 | 4.6 |
| O=C(NC(Sc1ccncn1)C(Cl)(Cl)Cl)c1ccccc1 (stereo unspecified) | -16.3 |
| Cc1c2non([O-])c-2c(C)[n+](=O)[n+]1[O-] | -0.88 |
| CP(=O)(Nc1ccccn1)Oc1ccccc1 (stereo unspecified) | -20.7 |
| COc1ccccc1OP(C)(=O)Nc1ccc(C)cc1C (stereo unspecified) | 13.4 |
| CCc1ccc(OP(C)(=O)O)cc1 | 6.84 |
| NC(=O)c1cc([N+](=O)[O-])cc([N+](=O)[O-])c1N | -9.56 |
| Cc1ccc(N/C(=N/P(=O)(N2CCOCC2)N2CCOCC2)N2CCOCC2)cc1 | -2.76 |
| COc1ccccc1OP(=O)(Nc1ccc(C)cn1)Oc1ccccc1OC | 1.4 |
| COc1ccc(OP(C)(=O)Nc2ccccn2)cc1 (stereo unspecified) | -9.85 |
| CN1CCCC(OC(=O)C(c2ccccc2)c2ccccc2)C1 (stereo unspecified) | -14.1 |
| CN(C)CCOC(=O)C(O)(c1ccccc1)C1CCCC1 (stereo unspecified) | -3.92 |
| Clc1ccc(Cl)c(NC2=NCC(CBr)S2)c1 (stereo unspecified) | 16.9 |
| Cc1nc2ccc3ccccc3c2o1.O=[N+]([O-])c1cc([N+](=O)[O-])c(O)c([N+](=O)[O-])c1 | 2.02 |
| CCN(N=Nc1nonc1N)c1nonc1N | 11.7 |
| CP(=O)(Nc1ccc(Cl)cc1Cl)Oc1ccccc1 (stereo unspecified) | 12.9 |
| CP(=O)(OCCOc1ccccc1)OCCOc1ccccc1 | -0.15 |
| Cc1cc(C)cc(OP(C)(=O)Nc2cccc(C(F)(F)F)c2)c1 (stereo unspecified) | -2.25 |
| Cc1cc(SC(NC(=O)c2ccc(F)cc2)C(Cl)(Cl)Cl)ncn1 (stereo unspecified) | -2.39 |
| CCOP(=O)(Nc1ccccc1)OCC | 15.7 |
| COc1ccccc1OP(C)(=O)Nc1ccc(C)c(C)c1 (stereo unspecified) | -21.8 |

| Structure (SMILES) | inhibition [%] |
| --- | --- |
| COc1ccc(OP(C)(=O)Nc2ccccc2Br)cc1 (stereo unspecified) | 7.94 |
| O=[N+]([O-])c1ncn(CCn2ncnc2[N+](=O)[O-])n1 | 19.8 |
| CCOC(=O)c1ccc(NP(C)(=O)Oc2ccc(Cl)cc2)cc1 (stereo unspecified) | -4.74 |
| CP(=O)(OC12CC3CC(CC(C3)C1)C2)OC12CC3CC(CC(C3)C1)C2 | 12.2 |
| COc1ccccc1OP(C)(=O)Nc1ccccc1Br (stereo unspecified) | -9.5 |
| CCN(/C(=N/P(=O)(N1CCOCC1)N1CCOCC1)N1CCOCC1)c1ccc(OC)cc1 | -2.68 |
| CP(=O)(Nc1ccc(Cl)cc1)Oc1ccc(F)cc1 (stereo unspecified) | -1.81 |
| CC(C)=N/N=C(\N)N[N+](=O)[O-] | -7.73 |
| CN(C)C(=O)c1c([N+](=O)[O-])cc([N+](=O)[O-])cc1[N+](=O)[O-] | 10.7 |
| CN(C)C(=O)OCCc1n(C)cc[n+]1C | -6.26 |
| CC1CCN(C(=O)Oc2c(Cl)cc(Cl)c3cccnc23)CC1 | -14.1 |
| CCN(CC)CC(O)COC(=O)C(O)(c1ccccc1)C1CCCCC1 (stereo unspecified) | 6.31 |
| COc1ccc(C2=NCC(CBr)S2)cc1 (stereo unspecified) | 0.32 |
| COc1ccc(OP(C)(=O)Nc2ccc(Br)cc2)cc1 (stereo unspecified) | -3.36 |
| CC(=O)N1C2C3N(C(C)=O)C1C1N(C(C)=O)C(C(N1C(C)=O)N3C(C)=O)N2C(C)=O | 13.5 |
| O=[N+]([O-])c1cccc2n[nH]nc12 | 7.37 |
| Cc1ccc(NP(=O)(Oc2ccccc2)Oc2ccccc2)nc1 | 6.08 |
| CP(=O)(Oc1ccccc1)N1CCOC1=O (stereo unspecified) | 2.39 |
| CCc1ccc(OP(C)(=O)Nc2cccnc2)cc1 (stereo unspecified) | 21.9 |
| O=[N+]([O-])c1cc([N+](=O)[O-])c(CCNc2ccccc2)c([N+](=O)[O-])c1 | 33.7 |
| CCc1nc2c(n1)c1c(non1O)c1c2no[n+]1[O-] | 17.9 |
| CP(=O)(Nc1ccc2c(c1)OCCO2)Oc1ccccc1 (stereo unspecified) | -6.23 |
| Cc1ccccc1NP(C)(=O)Nc1ccccc1C | -7.23 |
| O=P(Nc1nccs1)(c1ccccc1)c1ccccc1 | -3.48 |

| Structure (SMILES) | inhibition [%] |
| --- | --- |
| CC(C)C(=O)NC(Sc1ccccc1)C(Cl)(Cl)Cl (stereo unspecified) | 7.91 |
| CCOP(C)(=S)SCC(=O)NC(C)(CC)C(=O)O (stereo unspecified) | 16.1 |
| c1nnnn1CCn1cnnn1 | -6.03 |
| CC(=O)NC(SC(=S)N(C)C)C(Cl)(Cl)Cl (stereo unspecified) | -5.75 |
| O=[N+]([O-])c1cc([N+](=O)[O-])c(NCC2CCS(=O)(=O)C2)c([N+](=O)[O-])c1 (stereo unspecified) | -0.95 |
| C(Cc1nn[nH]n1)Cc1nn[nH]n1 | -1.81 |
| O=C(OC1CN2CCC1CC2)c1cccc(Cl)c1 (stereo unspecified) | 2.91 |
| COc1ccc(OP(C)(=O)Nc2cccc(Br)c2)cc1 (stereo unspecified) | 1.78 |
| O=P(Nc1ccccn1)(c1ccc(Br)cc1)c1ccc(Br)cc1 | -2.23 |
| CN(C)CCOC(=O)C(O)(c1ccccc1)C1CCCCC1 (stereo unspecified) | 8.63 |
| COc1ccc(NP(C)(=O)Oc2ccccc2OC)cc1 (stereo unspecified) | -3.46 |
| COC(=O)c1cc2c(s1)N=C(c1ccccc1)N(C)P2(=O)N1CCOCC1 (stereo unspecified) | 7.16 |
| CC(=O)NC(SC(=S)N(CC(C)C)CC(C)C)C(Cl)(Cl)Cl (stereo unspecified) | 61.8 |
| Cc1ccc(OP(=O)(Nc2ccccn2)Oc2ccc(C)cc2)cc1 | 16.1 |
| CCC(=O)N1C2C3N(C(=O)CC)C1C1N(C(=O)CC)C(C(N1C(=O)CC)N3C(=O)CC)N2C(=O)CC | -3.21 |
| CCN(CC)CCCOC(=O)C(O)(c1ccccc1)C1CCCCC1 (stereo unspecified) | 5.79 |
| CP(=O)(Nc1ccccc1)Oc1ccc(F)cc1 (stereo unspecified) | 9.81 |
| O=c1c2cc([N+](=O)[O-])ccc2[nH]c2c([N+](=O)[O-])cc([N+](=O)[O-])cc12 | 98.2 |
| O=C(NC1CCS(=O)(=O)C1)NP(=S)(Oc1ccccc1)Oc1ccccc1 (stereo unspecified) | -12.5 |
| CCNC(=S)/N=C(\N)N[N+](=O)[O-] | 4.16 |
| c1ccc(-c2nn[nH]n2)c(-c2nn[nH]n2)c1 | -7.33 |
| CCOC(=O)NC(Sc1ccccc1)C(Cl)(Cl)Cl (stereo unspecified) | 28 |
| CCOC(=O)c1ccc(NP(C)(=O)Oc2ccc(F)cc2)cc1 (stereo unspecified) | -12.3 |
| COc1ccc(OP(C)(=O)Nc2ccc(SC(F)(F)F)cc2)cc1 (stereo unspecified) | 0.46 |

| Structure (SMILES) | inhibition [%] |
| --- | --- |
| O=C(OCCN1CCN(CCOCc2ccccc2)CC1)C(O)(c1ccccc1)c1ccccc1 | -12.5 |
| CC(=O)Nc1ccc(Oc2c([N+](=O)[O-])cc([N+](=O)[O-])cc2[N+](=O)[O-])cc1 | 3.74 |
| O=P1(Nc2nc3ccc(Cl)cc3s2)COc2ccccc2O1 (stereo unspecified) | -2.4 |
| CCOc1ccc(C2=NCC(CBr)S2)cc1 (stereo unspecified) | 6.14 |
| CP(=O)(Nc1ccccc1F)Oc1ccccc1 (stereo unspecified) | -47.8 |
| CC(C)(C)C(=O)NC(Sc1ccccc1)C(Cl)(Cl)Cl (stereo unspecified) | 11.4 |
| CC(C)c1ccc(OP(C)(=O)Nc2ccc(SC(F)(F)F)cc2)cc1 (stereo unspecified) | -7.45 |
| Cc1ccc(C)c(NP(C)(=O)Oc2ccccc2)c1 (stereo unspecified) | 0.62 |
| Cc1cc(C)cc(OP(C)(=O)Nc2ccccn2)c1 (stereo unspecified) | 7.67 |
| CP(=O)(Nc1cccc(Br)c1)Oc1ccccc1 (stereo unspecified) | 9.71 |
| Cc1ccc(NCCc2c([N+](=O)[O-])cc([N+](=O)[O-])cc2[N+](=O)[O-])cc1 | 46.4 |
| CCOP(=O)(Nc1cccc2ccccc12)OCC | -12.8 |
| COc1cc(C(=O)NCC2(N3CCOCC3)CCCCC2)cc(Cl)c1OC(C)C | -6.1 |
| CCOC(=O)c1ccc(NP(C)(=O)Oc2cc(C)cc(C)c2)cc1 (stereo unspecified) | -13.7 |
| Cc1cccc(OCC(=O)OC2CN3CCC2CC3)c1 (stereo unspecified) | 1.24 |
| Cc1cc(C)cc(OP(C)(=O)Nc2ccc(C)cc2C)c1 (stereo unspecified) | 8.23 |
| O=[N+]([O-])c1ccc2c(c1)nnn2O | -8.9 |
| CC1=NCCc2c1[nH]c1ccccc21.O=[N+]([O-])c1cc([N+](=O)[O-])c(O)c([N+](=O)[O-])c1 | 20.7 |
| CCOP1(=S)c2c(C)nn(CCC#N)c2N=C(c2ccc(F)cc2)N1C (stereo unspecified) | -6.37 |
| CCOP1(=S)c2c(C)nn(CCC#N)c2N=C(c2ccccc2F)N1C (stereo unspecified) | -5.43 |
| O=P(Nc1nccs1)(Oc1ccccc1)Oc1ccccc1 | 2.9 |
| O=P(Nc1nccs1)(c1ccccc1)c1nc2ccccc2s1 (stereo unspecified) | -0.22 |
| CN1CCCCC1COC(=O)C1(O)c2ccccc2CCc2ccccc21 (stereo unspecified) | 1.4 |
| COc1ccccc1OP(C)(=O)Nc1c(C)cccc1C (stereo unspecified) | -1.86 |

| Structure (SMILES) | inhibition [%] |
| --- | --- |
| O=P1(Nc2ncccn2)COc2ccccc2OC1 | 19.9 |
| Cc1ccc(OCC(=O)OC2CN3CCC2CC3)cc1 (stereo unspecified) | 19.1 |
| O=P1(Nc2ccc(Br)cn2)COc2ccccc2OC1 | 4.32 |
| CCCOc1ccc(NP(C)(=O)Oc2ccc(Cl)cc2)cc1 (stereo unspecified) | -25 |
| CP(=O)(Nc1ccc(SC(F)(F)F)cc1)Oc1ccccc1 (stereo unspecified) | -22.9 |
| COc1cc(C2NCCC3(OCCO3)C2(C)C)cc(OC)c1OC.O=[N+]([O-])c1cc([N+](=O)[O-])c(O)c([N+](=O)[O-])c1 (stereo unspecified) | 11.8 |
| Cc1nn(-c2ccccc2)c2c1P(=O)(N1CCOCC1)N(C)C(c1ccccc1)=N2 (stereo unspecified) | -6.71 |
| CC1CCC(C(C)C)C(OP(=O)(Nc2ccccn2)c2ccccc2)C1 (stereo unspecified) | -3.31 |
| CN(C)C1(CNC(=O)c2ccc(S(C)(=O)=O)cc2)CCCCC1 | 11.5 |
| Cc1nc2ccc3ccccc3c2s1.O=[N+]([O-])c1cc([N+](=O)[O-])c(O)c([N+](=O)[O-])c1 | 8.88 |
| CN(C(=O)Cc1ccc(Cl)c(Cl)c1)[C@@H]1CCCC[C@H]1N1CCCC1 | 7.42 |
| CC(C)/C=N\N=C(\N)N[N+](=O)[O-] | 2.89 |
| O=P1(Nc2ccccn2)COc2ccccc2OC1 | -24.1 |
| O=[N+]([O-])c1cc([N+](=O)[O-])c(-n2nnc3ccccc32)c([N+](=O)[O-])c1 | -3.09 |
| Clc1n[nH]nc1-c1nn[nH][15n]1 | -6.27 |
| CCOC(=O)c1ccc(NP(C)(=O)Oc2ccc(OC)cc2)cc1 (stereo unspecified) | -10.4 |
| CCOP(C)(=S)SCC(=O)NC(C)C(=O)O (stereo unspecified) | -4.32 |
| CP(=O)(Nc1ccccn1)Oc1ccc(Cl)cc1 (stereo unspecified) | 9.33 |
| CCC(C)N(CC(C)C)C(=S)SC(NC(C)=O)C(Cl)(Cl)Cl (stereo unspecified) | 45.3 |
| COP1(=S)c2c(C)nn(CCC#N)c2N=C(c2ccc(F)cc2)N1C (stereo unspecified) | 4.22 |
